Measurements as given in PubChem BioAssay AID624297 (National Center for Advancing Translational Sciences (NCATS), 2012).
“And” between values parts separate entries of the source, which are not always exact repeats. Equal values may be shown once. The whole screen tested about 340,000 compounds, of which about 6,200 (1.8%) were called active. The shares of active, inactive and inconclusive entries below differ from those in the screen. Calls follow the shape of the dose curve; as a rule, active = well fitted activation curve with a large enough effect; inconclusive = small, poorly fitted or top-dose-only effect; inactive = no such curve, though single readings can be large or run the other way. Where the call is inconclusive, the potency comes from a doubtful curve fit.

Experiment: A quantitative high throughput screen for small molecules that induce DNA re-replication in SW480 colon adenocarcinoma cells. Also: nearly all actives have a fitted effect of over 55% in size. As to re-replication activation: % of control where 0% means no effect.
Conditions: Hoechst DNA content imaging, 48 h; re-replication activation: at 46.1 µM (top of the series) unless noted
How it was run: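 250 cells/well; 23 nL cpd via pin tool; 48 hr, 37 C, 5% CO2; Hoechst 40 min; imager read of total nuclear intensity, ex 405/em 500-530 nm.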
Potency is read from the fitted curve at half-maximal effect.

Row | SMILES | Potency | re-replication activation
1 | O=C(O)/C(=C\c1cccs1)Sc1nnc(-c2ccc(F)cc2)o1 | inconclusive: 0.146 µM [activator, partial curve, poor fit] | –
2 | CO[C@]1(NC(=O)[C@H](C(=O)O)c2ccc(O)cc2)C(=O)N2C(C(=O)O)=C(CSc3nnnn3C)CO[C@H]21 | – | inactive: 1.02% [at 20.6 µM]
3 | COc1ccc(-c2cc(C3CC3)nc(SCC(=O)c3cccs3)c2C#N)cc1 | inconclusive: 29.1 µM [activator, single point] | –
4 | COc1ccc(-c2noc(CC(=O)O)c2-c2ccc(OC)cc2)cc1 | inconclusive: 13.3 µM [activator, single point] | –
5 | Cc1c(NC(=O)c2cnn3c2NC(c2ccccc2)CC3C(F)(F)F)c(=O)n(-c2ccccc2)n1C (stereo not given) | inconclusive: 29.1 µM [activator, partial curve, poor fit] | –
6 | CCc1nnc(NC(=O)C2CC(=O)N(Cc3ccccc3)C2)s1 (stereo not given) | inconclusive: 4.11 µM [activator, single point] | –
7 | COc1ccc(-c2nc(N)c(C#N)c(-c3cccnc3)c2C)cc1 | inconclusive: 6.51 µM [activator, single point] | –
8 | CN(C)C(=S)N=c1ssc(=S)n1Cc1ccccc1 | active: 5.17 µM | –
9 | Fc1cccc(CCN2CCNC[C@@H]2CC2CCCCC2)c1 | inconclusive: 25.9 µM [activator, single point] | –
10 | C/C(=N\NC(=S)NCCc1ccccc1)c1cccc(Br)c1 | – | inactive: -3.84%
11 | CCOc1cc(C)c(C(C)C)cc1S(=O)(=O)n1cnc(C)c1 | inconclusive: 14.6 µM [activator, partial curve, poor fit] | –
12 | COc1ccc(C2CC(c3ccccc3)=NN2c2ccc(/C=N/NC(=O)c3ccncc3)cc2)cc1 (stereo not given) | inconclusive: 29.1 µM [activator, single point] | –
13 | CC(C)Nc1nc(NC(C)C)nc(N(C#N)CCOc2ccc(Cl)cc2Cl)n1 | inconclusive: 29.1 µM [activator, single point] | –
14 | CN(C)CCC=C1c2ccccc2C=Cc2ccccc21 | inconclusive: 13.3 µM [activator, single point] and inconclusive: 3.26 µM [activator, single point] | –
15 | Cc1onc(-c2ccccc2Cl)c1C(=O)Nc1sc2c(c1C(N)=O)CCC(C)C2 (stereo not given) | inconclusive: 29.1 µM [activator, single point] | –
16 | Cc1ccc(OC(=O)CCC(=O)NC(C)c2ccccc2)cc1 (stereo not given) | inconclusive: 2.91 µM [activator, partial curve, poor fit] | –
17 | Cn1c(=O)c2[nH]c(CCCC(=O)O)nc2n(Cc2ccccc2)c1=S | inconclusive: 1.84 µM [activator, partial curve, poor fit] | –
18 | COc1ccc(CN(C)CC(O)COc2ccc(-c3ccccc3)cc2)cc1OC (stereo not given) | inconclusive: 29.1 µM [activator, single point] | –
19 | O=C(N/N=C/c1cccc(Cl)c1)C(c1ccncc1)N1CCOCC1 (stereo not given) | inconclusive: 11.6 µM [activator, single point] | –
20 | COc1ccc(CN2C(=O)/C(=C/c3ccncc3)SC2=S)cc1 | inconclusive: 16.4 µM [activator, single point] | –

Row | SMILES | Potency | re-replication activation
21 | Cc1c(-n2c(SCC(C)C)nc3ccccc3c2=O)c(=O)n(-c2ccccc2)n1C | – | inactive: -5.91%
22 | COc1ccc(NS(=O)(=O)c2cccc3ccccc23)cc1 | inconclusive: 20.6 µM [activator, single point] | –
23 | Cc1ccccc1NC(=S)NCCc1ccccc1 | inconclusive: 0.517 µM [activator, full curve, poor fit] | –
24 | Cc1nn(C(C)(C)C)c(NC(=O)c2ccc(Cl)cc2)c1Br | inconclusive: 23.1 µM [activator, single point] | –
25 | Cc1ccc2c(c1)OC(c1ccc3c(c1)OCCO3)CC2=O (stereo not given) | inconclusive: 0.517 µM [activator, full curve, poor fit] | –
26 | Cc1ccc(NC(=O)CNC(=O)c2ccc(C)o2)cc1 | – | inconclusive: 41.3% [activator]
27 | Cc1ccc(NC(=O)c2scc3c2CCCC3)cc1 | inconclusive: 23.1 µM [activator, partial curve, poor fit] | –
28 | COc1cc(/C=N/n2c(C3CCCCC3)n[nH]c2=S)ccc1O | – | inactive: -2.97%
29 | Cc1cccc(NC(=O)CSCC(=O)Nc2cccc3ncccc23)c1 | – | inactive: -6.11%
30 | CCCCC1(C(=O)OC)NC(c2ccc(O)cc2)C2C(=O)N(c3ccccc3)C(=O)C21 (stereo not given) | – | inactive: 0.914%
31 | CN1C(=O)c2cccc(NCCCN3C(=O)c4ccccc4C3=O)c2C1=O | inconclusive: 25.9 µM [activator, single point] | –
32 | CCN(CC)C(=O)c1ccc(/C=C/c2c[nH]c3ccccc23)[n+](C)c1 | inconclusive: 8.2 µM [activator, partial curve, poor fit] | –
33 | COC(=O)c1sc2nc(SCC(=O)N(C)c3ccccc3)n(N)c(=O)c2c1C | inconclusive: 1.84 µM [activator, partial curve, poor fit] | –
34 | Cc1ccc(S(=O)(=O)N2CCN(C(=O)C3CCCCC3)CC2)cc1 | inconclusive: 29.1 µM [activator, single point] | –
35 | CCOC(=O)C1C(=O)NC(SCC(=O)Nc2nccs2)=C(C#N)C1c1ccccc1OCC (stereo not given) | inconclusive: 29.1 µM [activator, single point] | –
36 | CCOC(=O)c1ccc(-c2ccc(/C=N/NC(=O)CN(c3ccccc3Br)S(C)(=O)=O)o2)cc1 | inconclusive: 0.0092 µM [activator, full curve, poor fit] | –
37 | CCn1c(C(=O)OC)cc2c1ccn2-c1ccc(F)cc1 | inconclusive: 32.6 µM [activator, partial curve, poor fit] | –
38 | CCCCN(Cc1ccccc1)S(=O)(=O)c1cc2c(cc1Br)CC(C)N2C(C)=O (stereo not given) | inconclusive: 14.6 µM [activator, partial curve, poor fit] | –
39 | Cc1ccc(C)c(Sc2ccc(S(=O)(=O)Nc3ccc(C(=O)O)cc3)cc2)c1 | – | inactive: -12.8%
40 | Cc1ccc(NC(=O)Cn2cccc2C2=NC(c3ccccc3)CO2)cc1C (stereo not given) | inconclusive: 8.2 µM [activator, single point] | –
